Percent effect of library compounds

Amino acid sequences for entries named in this document (tags omitted). Residues count along the entry.
UniProt I6X8D2, whole entry: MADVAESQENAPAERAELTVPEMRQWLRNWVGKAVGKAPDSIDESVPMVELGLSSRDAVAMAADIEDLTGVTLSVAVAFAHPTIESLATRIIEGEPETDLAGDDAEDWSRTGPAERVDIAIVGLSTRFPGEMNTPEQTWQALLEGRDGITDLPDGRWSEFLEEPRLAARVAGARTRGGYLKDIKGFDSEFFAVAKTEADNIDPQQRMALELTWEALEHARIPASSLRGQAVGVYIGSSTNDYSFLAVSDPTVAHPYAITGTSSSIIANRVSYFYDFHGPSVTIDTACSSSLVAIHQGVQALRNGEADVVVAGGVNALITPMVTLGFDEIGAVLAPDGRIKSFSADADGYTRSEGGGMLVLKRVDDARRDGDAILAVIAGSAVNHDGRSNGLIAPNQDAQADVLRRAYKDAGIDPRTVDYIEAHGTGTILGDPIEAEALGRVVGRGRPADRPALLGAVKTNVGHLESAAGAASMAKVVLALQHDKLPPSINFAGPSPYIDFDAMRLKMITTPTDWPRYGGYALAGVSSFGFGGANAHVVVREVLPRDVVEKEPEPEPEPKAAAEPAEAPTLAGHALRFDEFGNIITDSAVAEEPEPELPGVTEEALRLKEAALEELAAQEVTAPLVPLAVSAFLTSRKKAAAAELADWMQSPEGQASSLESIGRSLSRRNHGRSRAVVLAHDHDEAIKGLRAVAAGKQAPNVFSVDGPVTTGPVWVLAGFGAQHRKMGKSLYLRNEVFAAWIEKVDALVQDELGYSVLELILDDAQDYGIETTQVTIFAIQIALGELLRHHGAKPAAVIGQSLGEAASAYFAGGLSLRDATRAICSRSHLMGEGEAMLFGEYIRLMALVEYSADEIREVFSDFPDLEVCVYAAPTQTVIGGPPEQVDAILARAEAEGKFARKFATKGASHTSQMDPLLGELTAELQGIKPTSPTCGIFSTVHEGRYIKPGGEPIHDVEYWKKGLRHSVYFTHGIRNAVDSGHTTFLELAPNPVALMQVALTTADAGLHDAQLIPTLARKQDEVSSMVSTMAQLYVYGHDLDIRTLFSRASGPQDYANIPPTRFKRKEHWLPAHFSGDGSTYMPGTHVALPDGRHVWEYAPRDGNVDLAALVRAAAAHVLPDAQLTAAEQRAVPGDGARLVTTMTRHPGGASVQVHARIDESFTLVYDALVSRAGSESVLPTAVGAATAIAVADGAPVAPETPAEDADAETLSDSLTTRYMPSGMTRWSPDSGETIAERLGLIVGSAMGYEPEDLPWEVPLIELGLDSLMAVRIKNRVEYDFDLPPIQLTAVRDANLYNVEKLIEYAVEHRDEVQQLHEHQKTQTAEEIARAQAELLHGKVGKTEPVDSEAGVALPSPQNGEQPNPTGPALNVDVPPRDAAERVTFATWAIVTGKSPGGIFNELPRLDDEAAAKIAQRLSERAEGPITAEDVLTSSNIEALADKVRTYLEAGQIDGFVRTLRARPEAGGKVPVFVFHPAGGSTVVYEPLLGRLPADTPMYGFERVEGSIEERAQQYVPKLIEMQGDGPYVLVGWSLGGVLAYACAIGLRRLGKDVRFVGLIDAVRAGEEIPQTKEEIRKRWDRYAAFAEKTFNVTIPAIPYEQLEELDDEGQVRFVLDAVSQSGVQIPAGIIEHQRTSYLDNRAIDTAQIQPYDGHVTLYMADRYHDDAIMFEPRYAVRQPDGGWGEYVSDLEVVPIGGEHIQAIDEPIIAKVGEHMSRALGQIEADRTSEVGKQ
UniProt Q4DA54, 1-478: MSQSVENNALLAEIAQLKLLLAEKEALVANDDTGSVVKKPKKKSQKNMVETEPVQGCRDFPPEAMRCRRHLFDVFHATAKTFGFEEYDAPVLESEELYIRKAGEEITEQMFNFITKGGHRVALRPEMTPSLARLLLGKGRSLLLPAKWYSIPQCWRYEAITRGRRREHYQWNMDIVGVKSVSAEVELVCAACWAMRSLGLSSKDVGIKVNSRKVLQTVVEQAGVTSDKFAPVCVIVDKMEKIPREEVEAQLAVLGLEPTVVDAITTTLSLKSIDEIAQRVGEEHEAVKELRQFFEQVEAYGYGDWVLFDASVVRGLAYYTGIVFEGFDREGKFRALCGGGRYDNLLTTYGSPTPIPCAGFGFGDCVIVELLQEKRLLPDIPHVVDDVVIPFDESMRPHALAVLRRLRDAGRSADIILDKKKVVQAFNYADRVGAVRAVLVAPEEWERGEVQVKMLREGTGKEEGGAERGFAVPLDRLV
UniProt P9WPC5, whole entry: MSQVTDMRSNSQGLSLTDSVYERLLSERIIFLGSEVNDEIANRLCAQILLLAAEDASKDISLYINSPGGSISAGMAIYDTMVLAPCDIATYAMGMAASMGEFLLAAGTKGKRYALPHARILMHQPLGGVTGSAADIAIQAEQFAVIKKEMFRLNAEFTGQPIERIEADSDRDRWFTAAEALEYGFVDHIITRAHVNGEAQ
UniProt P9WPC3, whole entry partner: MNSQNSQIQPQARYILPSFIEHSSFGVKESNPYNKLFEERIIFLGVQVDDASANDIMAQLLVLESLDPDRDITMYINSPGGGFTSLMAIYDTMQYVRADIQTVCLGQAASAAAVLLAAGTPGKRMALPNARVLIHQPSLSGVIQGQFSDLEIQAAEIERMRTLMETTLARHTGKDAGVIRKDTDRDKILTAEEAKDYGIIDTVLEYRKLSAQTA
UniProt A4I591, 1-473: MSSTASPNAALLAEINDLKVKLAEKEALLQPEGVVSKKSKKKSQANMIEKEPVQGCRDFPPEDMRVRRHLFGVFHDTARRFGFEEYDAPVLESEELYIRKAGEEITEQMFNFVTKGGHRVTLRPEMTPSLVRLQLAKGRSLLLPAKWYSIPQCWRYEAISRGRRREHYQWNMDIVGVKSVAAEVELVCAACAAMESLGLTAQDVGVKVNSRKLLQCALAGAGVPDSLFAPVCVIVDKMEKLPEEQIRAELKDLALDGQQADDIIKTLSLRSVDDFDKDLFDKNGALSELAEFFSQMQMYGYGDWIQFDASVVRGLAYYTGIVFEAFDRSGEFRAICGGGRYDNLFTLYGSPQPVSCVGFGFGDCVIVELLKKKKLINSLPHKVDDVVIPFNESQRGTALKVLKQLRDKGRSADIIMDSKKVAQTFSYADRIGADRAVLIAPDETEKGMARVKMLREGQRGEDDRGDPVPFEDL

A: 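Enzyme assay of the thioesterase domain of polyketide synthase 13; the read-out is not stated. Target: Polyketide synthase Pks13, Mycobacterium tuberculosis (UniProt I6X8D2). Compounds at 30 µM. The record gives no direction; the compounds picked for IC50 retests had high values, so higher reads as stronger inhibition. Size under these conditions: about 67,000 compounds, about 300 of them at 50% or above in at least one test.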
B: 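Enzyme assay of histidyl-tRNA synthetase; the read-out is not stated. Target: Histidine-tRNA ligase, Trypanosoma cruzi CL Brener (UniProt Q4DA54). Compounds at 30 µM. The record gives no direction; compounds that gave an IC50 in retests scored well above the rest, so higher reads as stronger inhibition. Size under these conditions: about 69,000 compounds, about 31 of them at 50% or above in at least one test.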
C: 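ClpP1P2, Mycobacterium tuberculosis (UniProt P9WPC5 and UniProt P9WPC3). Protease assay of ClpP1P2, read by the AMC dye that it sets free. Concentration: 50 µM. Higher reads as stronger inhibition, judged from the few compounds that gave an IC50. Most other retested compounds had strongly negative values. Of about 69,000 compounds tested this way, about 10 (0.015%) reached 50% or more in at least one test.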
D: 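Cell assay of Leishmania donovani living inside macrophages; the read-out is not stated. Concentration: 30 µM. Direction is inferred from retests: higher values go with stronger inhibition. About 69,000 compounds were tested under these conditions; 1.5% (about 1,000) showed 50% or more at least once.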
E: 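Enzyme assay of histidyl-tRNA synthetase; the read-out is not stated. Target: Histidine-tRNA ligase, Leishmania infantum (UniProt A4I591). Concentration: 30 µM. Direction is inferred from retests: higher values go with stronger inhibition. The assay is labelled LdHisRS but filed under L. infantum. About 69,000 compounds were tested under these conditions; 0.6% (about 410) showed 50% or more at least once.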

The filed quantity is “Percent Effect” (%). The controls that fix the scale are not given in the record; negative values are as filed. This is an unselected part of the compounds tested. A dash means the value is not listed here; it may have been measured.

compound | A | B | C | D | E
CC(C)n1ncc2c1NC(=O)C(C#N)C21CCCC1 (stereo unspecified) | -10.78 | 5.882 | 15.51 | 15.21 | 15.79
CC(C(=O)Nc1nccs1)N1CCc2nn(C)c(=O)cc2C1 (stereo unspecified) | 12.16 | 0 | 2.702 | 0.9108 | 23.21
Cc1nc(CN)cc(N2CCC(O)(c3ccc(Cl)cc3)CC2)n1 | 8.051 | 33.76 | 4.368 | -13.57 | 7.042
O=C1NCC2(CCCN(C(=O)c3ccc4c(c3)OCCO4)CC2)O1 (stereo unspecified) | -26.71 | 6.18 | -6.464 | 17.58 | 17.95
O=C1CCC2(CCN(Cc3cc(F)cc(F)c3)CC2)CN1CCO | -15.02 | 0 | -5.42 | 0.5521 | 18.27
CN(Cc1ccncc1)C(=O)Nc1cnn(CC(N)=O)c1 | -27.43 | 7.389 | -3.562 | 31.92 | 14.29
CC(C)N1CCCC(Cc2nccnc2Cl)C1 (stereo unspecified) | 10.57 | 8.046 | -15.56 | 20.8 | -11.43
Cc1cncc(NC(=O)c2ccc(CN3CCCC(C(N)=O)C3)cc2)c1 (stereo unspecified) | -13.5 | -1.026 | 16.73 | 15.34 | 12.24
Cc1cc(C)c(S(N)(=O)=O)cc1C(=O)NCCN1CCC(C)CC1 | -20.33 | 4.663 | 11.23 | -18.68 | 12.36
O=C(NC1CC1)[C@H]1C[C@@H]2CCN(CCc3ccccc3)C[C@H]2O1 | -21.26 | 2.732 | 7.634 | - | 12.41
Cc1ccccc1-c1noc(CN2CCC(N3CCNC3=O)CC2)n1 | -40.21 | 5.172 | -15.15 | 45.33 | 13.91
Cn1cnnc1C1CCCN(C(=O)Cc2ccc3c(c2)OCCO3)C1 (stereo unspecified) | -19.78 | 1.887 | 22.51 | 21.88 | 18.67
Cc1cccc(NC(=O)C(C)Oc2ccc3c(c2)OCO3)n1 (stereo unspecified) | - | 0.8772 | -14.57 | -23.09 | 14.16
COc1ccc(N(C)Cc2nc3c(cnn3C)c(=O)[nH]2)cc1OC | -2.237 | 7.324 | -1.432 | 25.62 | 20
CN(Cc1cccnc1)C[C@H]1CC[C@@H](Cc2ccc3c(cnn3C)c2)O1 | -27.17 | 2.463 | -6.304 | 13.77 | 3.947
CCn1ccnc1-c1nc2cc(S(=O)(=O)N3CCCC3)ccc2n1C | -6.947 | -1.653 | -9.58 | 1.002 | 17.31
Cn1cc(Br)cc(NC(=O)CC2CCC2)c1=O | -32.03 | 5.195 | 2.068 | 18.85 | 103.3
Cc1csc(C(Cc2ccsc2)NC(=O)CN(C)Cc2ccccn2)n1.Cl (stereo unspecified) | - | - | - | 45.23 | -
Cc1cccc(CS(=O)(=O)CC(=O)N(C)Cc2ccccc2F)c1 | -17.25 | -1.681 | -1.745 | 18.57 | 13.22
O=C(NC1CC1)C1=CC2(CCN(CC3CC3)CC2)c2ccccc21.O=C(O)C(F)(F)F | - | - | - | 2.592 | -
Nc1nc(CN2CCCC2Cn2cncn2)nc2ccccc12 (stereo unspecified) | -13.47 | 10.2 | -44.59 | 27.86 | 22.02
O=C(N1CCOCC1)N1CCCC1c1nc(-c2ccccn2)no1 (stereo unspecified) | -28.31 | 6.383 | 4.958 | 21.75 | 21.88
COCCN1CCc2ncnc(NC3CC3)c2CC1 | -16.5 | -1.105 | -1.81 | 25.17 | 6.306
Cc1cnn(CC2CN(c3nnc(C)c(C)c3C#N)CCO2)c1 (stereo unspecified) | -7.649 | 7.101 | -34.76 | 14.48 | -7.143
OCCN1CCN(Cc2cnc3c(-c4ccccc4)cnn3c2)CC1 | 32.26 | 3.279 | 2.785 | -25.46 | 3.509
COc1c(C)cnc(CN(C)C2CCN(C3CCOCC3)CC2)c1C | -6.207 | 10.1 | -4.143 | 38.73 | 21.95
COCCC(=O)N1CCC2(CCN(Cc3cccc(F)c3)CC2)C1.O=C(O)C(F)(F)F | - | - | - | 10.96 | -
Cc1sc(Br)cc1S(=O)(=O)NCCCN | -7.886 | 1.538 | -5.456 | - | 9.524
c1cncc(CNCCc2cccs2)c1 | -2.93 | -0.5291 | 5.886 | 31.72 | 17.33
CC(C(=O)N1CCN(c2cnccn2)CC1)n1cncn1 (stereo unspecified) | 0.6472 | 4.135 | 1.324 | 1.821 | 10.81
[H][C@@]12CCN(S(=O)(=O)c3cccs3)[C@]1([H])CCC(=O)N2CCOC | - | - | - | -2.199 | -
CN(c1ccncn1)C1CC2(CCN(C(=O)CCc3cccs3)C2)C1 (stereo unspecified) | -16.17 | 0.5405 | -0.9723 | 42.79 | 16.67
O=C1N(c2ccccc2)C[C@H]2CN(C3CCC3)CCN12 | -33.63 | 0.9901 | -1.968 | - | 22.22
CSc1ccc(-c2nc(CN3CCC(NC(C)=O)C3)c(C)o2)cc1 (stereo unspecified) | -11.68 | 7.5 | -17.02 | 15.31 | 11.54
CC(C)CSCCCNC(=O)C1CCOC1 (stereo unspecified) | -23.66 | 10.5 | -10.12 | 1.393 | 7.229
CC(=O)Nc1nc(CN2CCOC(Cn3cccn3)C2)cs1 (stereo unspecified) | -14.21 | 2.624 | -45.93 | 13.67 | 13.27
CC(C)c1ccc(CN[C@@H]2COC[C@H]2c2ccc(F)cc2)cc1 | 28.47 | 10.08 | -14.37 | -31.78 | 19.86
c1cnnc(N2CCCC2CNc2ncnc3ccsc23)c1 (stereo unspecified) | -33.01 | 8.451 | -16.08 | 20.25 | 23.48
Cc1cnc(CN(C)C2CCN(CC(=O)Nc3nccs3)C2)o1 (stereo unspecified) | -1.227 | 1.714 | -11.86 | 14 | 8.475
Cc1ccc(CN(CCCn2ccnc2)Cc2cc(F)ccc2F)s1 | -49.15 | 8.209 | -8.519 | - | 13.68
c1ccc(CO[C@H]2CO[C@@]3(CCCN(Cc4cccnc4)C3)C2)nc1 | 10.98 | 3.659 | -5.904 | - | 7.692
CCn1ncnc1C(NC(=O)CC1CCN(C(C)C)CC1)C1CC1 (stereo unspecified) | -18.91 | 4.237 | -6.765 | 9.583 | 1.887
O=C1[C@H]2CN(CC3CC3)C[C@H]2CN1c1ccsc1 | -34.38 | 1.657 | 2.683 | - | 3.008
Cc1cc(C(=O)N2CCCC3(COCCN(CCN(C)C)C3)C2)no1 (stereo unspecified) | -40.4 | 5.882 | -2.304 | - | 34.29
CC(C)n1cnc(-c2nc(C(=O)N3CCN(C)CC3)c3ccccn23)c1 | -5.849 | 4.902 | -541.5 | 18.93 | 22.86
O=C(Nc1cc(-c2cccnc2)no1)C1CCC1 | -3.142 | 10.05 | -10.37 | 15.16 | 11.76
CC(C)NC(=O)C1CCC2(CCNCC2)C1 (stereo unspecified) | -29.15 | 7.767 | -8.869 | -4.053 | 17.48
Cc1cc(C)n(Cc2cc(C(=O)N3CCCCC3c3nccs3)n[nH]2)n1 (stereo unspecified) | -12.33 | 2.97 | -5.661 | 2.452 | -6.522
CCNC(=O)N1CC[C@H]2CC(=O)N(C3CCCCC3)CC[C@H]2C1 | -34.4 | 12.87 | -12.65 | - | 25
O=C(c1cccnc1)N1C[C@@H]2CN(CCN3CCCC3)C(=O)[C@@H]2C1 | -1.248 | 1.031 | -14.52 | - | 20

The first 5 entries again:

compound	A	B	C	D	E
CC(C)n1ncc2c1NC(=O)C(C#N)C21CCCC1 (stereo unspecified)	-10.78	5.882	15.51	15.21	15.79
CC(C(=O)Nc1nccs1)N1CCc2nn(C)c(=O)cc2C1 (stereo unspecified)	12.16	0	2.702	0.9108	23.21
Cc1nc(CN)cc(N2CCC(O)(c3ccc(Cl)cc3)CC2)n1	8.051	33.76	4.368	-13.57	7.042
O=C1NCC2(CCCN(C(=O)c3ccc4c(c3)OCCO4)CC2)O1 (stereo unspecified)	-26.71	6.18	-6.464	17.58	17.95
O=C1CCC2(CCN(Cc3cc(F)cc(F)c3)CC2)CN1CCO	-15.02	0	-5.42	0.5521	18.27

Source: ChEMBL document CHEMBL3988442, “University of Dundee, Small-Polar-MMV Screening Library” (2021).